Reference: publication PMC9489700
No constants are given. Whether binding was seen depends on the method and setting. Binding seen in cells or lysates may run through a third protein. A result given as binding can be weak or reduced; the word gives no strength.

The chains behind the UniProt entries cited, without tags or fusion partners. Where a name states a change or a piece, a line headed by the entry shows the natural chain unless it says otherwise.
UniProt P63330: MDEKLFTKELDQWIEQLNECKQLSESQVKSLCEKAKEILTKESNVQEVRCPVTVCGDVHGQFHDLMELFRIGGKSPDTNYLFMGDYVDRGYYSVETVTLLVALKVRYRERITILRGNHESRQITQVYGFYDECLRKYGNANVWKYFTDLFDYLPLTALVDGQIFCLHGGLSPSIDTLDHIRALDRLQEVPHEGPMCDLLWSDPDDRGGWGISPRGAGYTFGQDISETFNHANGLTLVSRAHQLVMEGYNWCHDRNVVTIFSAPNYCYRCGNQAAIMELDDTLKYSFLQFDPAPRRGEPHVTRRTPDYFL

Target: T1, ETV7 (human) (UniProt Q9Y603)
T1 sequence: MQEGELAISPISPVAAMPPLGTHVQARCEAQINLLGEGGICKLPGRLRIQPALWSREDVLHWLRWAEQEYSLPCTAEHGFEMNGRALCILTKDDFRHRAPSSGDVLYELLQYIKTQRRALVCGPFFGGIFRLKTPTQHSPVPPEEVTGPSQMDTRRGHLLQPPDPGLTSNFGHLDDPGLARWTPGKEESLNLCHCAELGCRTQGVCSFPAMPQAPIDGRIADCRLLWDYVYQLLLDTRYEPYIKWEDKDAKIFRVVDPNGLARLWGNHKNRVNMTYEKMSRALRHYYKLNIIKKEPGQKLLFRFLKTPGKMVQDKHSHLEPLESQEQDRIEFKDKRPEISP
Test: co-IP; two-way co-immunoprecipitation from lysates of PE and NPE tumors (NP tumors as control); 750 μg protein, 2 μg antibody overnight at 4 °C, Protein G Dynabeads, four washes with CHAPS lysis buffer (0.3% CHAPS, 120 mM NaCl, pH 7.4); Western blot

With PP2Ac (from UniProt P63330) the binding was “binds”.
